Laboratory results as given in patent publication US20050209271A1, “Form of renzapride hydrochloride hydrate and uses thereof” (priority 2003, published 2005).
Where a name gives a salt, the structure may show the parent alone. For at least one compound, name, drawing or mass did not settle the structure.

Assays:
[1] = Dynamic vapour sorption (DVS), adsorption/desorption cycles between 0 and 90% RH; assay type: physicochemical
Text: Each sample was placed into a sample pan and loaded into the DVS system. An initial weight reading was taken. The sample was then exposed to an atmosphere with a relative humidity (RH) of 0% to dry the sample and a dry weight reading taken. The sample was exposed to an adsorption/desorption cycle between 0 and 90% RH in 10% RH intervals. The change in weight data was fitted to an exponential expression that was used to automatically determine the end point of each stage, which then triggers the next increase/decrease in relative humidity. For the DVS traces, the stepped lines represent the relative humidity (RH) level in the Chamber. The curved line represents the weight change in the sample. The RH was controlled automatically and changes once the rate of change in weight of the sample is small.

[2] = Intrinsic dissolution rate (IDR) of compressed discs in a static dissolution system; assay type: physicochemical
Description: The samples were prepared as discs. Each disc was prepared by compressing the sample for 5 minutes at 2 tons of pressure. Each disc was transferred to a static dissolution system, whereby one surface of the disc is exposed to the dissolution medium. Six discs were prepared from each batch of material for duplicate intrinsic dissolution rate (IDR) determinations at pHs 2.2, 4.0 and 7.0. Dissolution samples (0.8 ml) were withdrawn at 5 minute intervals up to 60 minutes and samples were analysed. The amount of drug released (mg) is divided by the surface area of the disc (0.5 cm^2) to obtain an amount per unit area (mg cm^−2). The average of the duplicate determinations is plotted as a function of time (minutes). The IDR (mg cm^−2 minutes^−1) is given by the gradient (determined by linear regression) over the linear range of the release profile. When the dissolution into solution is deemed independent of pH, a pH independent IDR is calculated. The pH independent IDR is calculated by averaging the data for each time point at all of the pHs studied and calculating the linear regression on at least the first 5 data points. All IDR values are reported with the error encompassing the upper and lower 95% confidence limits of the linear regression. Linear regression analysis of the IDR data used all of the data points, as the release profiles are linear.

In the case of `COc1cc(N)c(Cl)cc1C(=O)NC1CCN2CCCC1C2` (stereo not drawn) [Amorphous, renzapride hydrochloride hydrate], the “overall moisture gain from 0% RH to 90% RH (DVS)” value ([1]; 0% RH to 90% RH) was “approximately 12 % (w/w)”, the “uptake in moisture at 10% RH (DVS)” value ([1]; exposure to 10% RH, initial uptake) was “approximately 6 % (w/w)” and the “IDR independent (pH independent IDR)” value ([2]; data averaged over all pHs studied, error = 95% confidence limits) was 6.8 ± 0.3 mg/min/cm^2. For the same compound, the “IDR pH 2.2” value ([2]; pH 2.2, error = 95% confidence limits of linear regression) was 6.6 ± 0.2 mg/min/cm^2, the “IDR pH 4.0” value ([2]; pH 4.0, error = 95% confidence limits of linear regression) was 6.7 ± 0.1 mg/min/cm^2 and the “IDR pH 7.0” value ([2]; pH 7.0, error = 95% confidence limits of linear regression) was 6.9 ± 0.1 mg/min/cm^2.
